No constants are given. Whether binding was seen depends on the method and setting. A result given as binding can be weak or reduced; the word gives no strength.
Biological target: Aedes aegypti odorant receptor OR10 (Aedes aegypti)
Assay: SEC; complexes purified from HEK293 cells transfected with varying ratios of AaOR10 to Orco DNA; assessed by size exclusion chromatography and SDS-PAGE

binding: binds
B1: Apocrypta bakeri odorant receptor co-receptor Orco (receptor, UniProt B0FAQ4 1-474)
chain: MKFKHQGLVADLLPNIRVMQGVGHFMFNYYSEGKKFPHRIYCIVTLLLLLLQYGMMAVNLMMESDDVDDLTANTITMLFFLHPIVKMIYFPVRSKIFYKTLAIWNNPNSHPLFAESNARFHALAITKMRRLLFCVAGATIFSVISWTGITFIEDSVKRITDPETNETTIIPIPRLMIRTFYPFNAMSGAGHVFALIYQFYYLVISMAVSNSLDVLFCSWLLFACEQLQHLKAIMKPLMELSATLDTVVPNSGELFKAGSADHLRESQGVQPSGNGDNVLDVDLRGIYSNRQDFTATFRPTAGTTFNGGVGPNGLTKKQEMLVRSAIKYWVERHKHVVRLVTAVGDAYGVALLLHMLTTTITLTLLAYQATKVNGVNVYAATVIGYLLYTLGQVFLFCIFGNRLIEESSSVMEAAYSCHWYDGSEEAKTFVQIVCQQCQKAMSISGAKFFTVSLDLFASVLGAVVTYFMVLVQLK
